No constants are given. Whether binding was seen depends on the method and setting. For some of these results: Binding seen in cells or lysates may run through a third protein. Some entries that bind do so weakly or less than the wild type.
Tests used:
[1] = target: T1, BubR1 ABBA^272 peptide, wild-type 272, biotin-conjugated (human); experiment: pull-down; biotinylated peptides coupled to streptavidin Ultralink beads; cleared extract of metaphase HeLa cells in PBS plus 0.5% Triton X-100 and protease inhibitors; 1 hr at 4°C; immunoblot on a LI-COR Odyssey scanner; only the target purified
T1 sequence (peptide, biotin (position not stated)): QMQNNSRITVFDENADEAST

Chains of the proteins cited; added tags and fusions are not shown.
UniProt O60566: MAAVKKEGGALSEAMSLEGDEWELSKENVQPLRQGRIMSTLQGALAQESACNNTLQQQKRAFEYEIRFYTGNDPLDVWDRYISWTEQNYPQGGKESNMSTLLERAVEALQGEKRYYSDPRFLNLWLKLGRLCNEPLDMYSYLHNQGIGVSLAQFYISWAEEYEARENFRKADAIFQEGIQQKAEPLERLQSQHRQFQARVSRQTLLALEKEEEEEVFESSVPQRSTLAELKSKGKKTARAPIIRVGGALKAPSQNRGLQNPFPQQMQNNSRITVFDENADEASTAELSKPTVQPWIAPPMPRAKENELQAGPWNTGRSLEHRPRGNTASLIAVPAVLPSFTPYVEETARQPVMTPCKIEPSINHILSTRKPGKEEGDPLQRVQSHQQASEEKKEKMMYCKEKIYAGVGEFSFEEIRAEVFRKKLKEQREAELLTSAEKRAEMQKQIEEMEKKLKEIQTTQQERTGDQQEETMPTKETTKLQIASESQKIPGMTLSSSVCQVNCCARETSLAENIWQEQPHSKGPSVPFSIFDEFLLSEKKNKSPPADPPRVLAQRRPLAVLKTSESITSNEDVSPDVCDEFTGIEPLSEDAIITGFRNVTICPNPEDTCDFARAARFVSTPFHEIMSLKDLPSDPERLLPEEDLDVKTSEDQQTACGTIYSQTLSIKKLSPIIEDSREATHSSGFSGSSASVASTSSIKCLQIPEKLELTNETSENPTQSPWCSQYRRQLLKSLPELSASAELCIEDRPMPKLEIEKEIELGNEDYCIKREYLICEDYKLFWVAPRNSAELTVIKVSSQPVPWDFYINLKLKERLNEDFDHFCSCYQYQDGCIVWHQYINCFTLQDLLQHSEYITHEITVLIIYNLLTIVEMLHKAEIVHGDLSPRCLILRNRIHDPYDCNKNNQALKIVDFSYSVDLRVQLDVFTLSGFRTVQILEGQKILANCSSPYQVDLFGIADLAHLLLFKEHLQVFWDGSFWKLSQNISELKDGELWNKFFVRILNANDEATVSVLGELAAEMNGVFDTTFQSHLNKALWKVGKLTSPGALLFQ
UniProt Q12834: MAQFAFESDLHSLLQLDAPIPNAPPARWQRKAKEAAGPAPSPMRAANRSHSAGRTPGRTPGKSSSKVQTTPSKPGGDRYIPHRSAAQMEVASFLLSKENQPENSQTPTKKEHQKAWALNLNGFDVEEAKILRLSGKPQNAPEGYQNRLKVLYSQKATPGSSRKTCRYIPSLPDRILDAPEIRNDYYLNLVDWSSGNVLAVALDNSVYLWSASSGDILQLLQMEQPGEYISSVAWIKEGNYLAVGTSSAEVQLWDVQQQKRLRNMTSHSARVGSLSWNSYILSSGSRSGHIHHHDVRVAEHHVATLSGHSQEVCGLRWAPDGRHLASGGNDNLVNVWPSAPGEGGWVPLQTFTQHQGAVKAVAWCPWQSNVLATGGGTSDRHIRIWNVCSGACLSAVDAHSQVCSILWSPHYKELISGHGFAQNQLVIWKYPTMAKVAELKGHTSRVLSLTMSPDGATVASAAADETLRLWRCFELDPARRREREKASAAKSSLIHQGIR
UniProt O43684: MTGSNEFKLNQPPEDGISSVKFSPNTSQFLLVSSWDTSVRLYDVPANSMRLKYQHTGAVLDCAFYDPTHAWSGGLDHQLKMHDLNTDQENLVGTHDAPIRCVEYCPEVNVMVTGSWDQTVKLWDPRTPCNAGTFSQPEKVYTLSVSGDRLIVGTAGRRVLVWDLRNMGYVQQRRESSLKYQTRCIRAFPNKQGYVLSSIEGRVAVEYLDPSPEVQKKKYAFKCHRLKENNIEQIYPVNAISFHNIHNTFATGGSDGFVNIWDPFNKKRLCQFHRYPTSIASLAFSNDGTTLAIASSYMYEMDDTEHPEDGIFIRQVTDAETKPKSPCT

[2] = target: T2, BubR1 ABBA^340 peptide, wild-type 340, biotin-conjugated (human); experiment: as above
T2 sequence (peptide, biotin (position not stated)): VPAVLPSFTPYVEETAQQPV

[3] = target: T3, BubR1 ABBA^528 peptide, wild-type 528, biotin-conjugated (human); experiment: as above
T3 sequence (peptide, biotin (position not stated)): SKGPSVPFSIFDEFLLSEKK

[4] = target: streptavidin binding protein (SBP)-tagged BubR1, wild-type (human) (UniProt O60566); experiment: tandem affinity co-purification; Cdc20, SBP-BubR1 (WT or mutants), His6-Mad2 and Bub3 co-expressed in Sf9 cells (MultiBac); biotin elution from Strep agarose beads followed by Ni-NTA beads; silver staining after SDS-PAGE

binding [1]	binding [2]	binding [3]	binding [4]	Substance
binds weakly	binds weakly	binds		Cdc20 (endogenous, metaphase HeLa cell extract) (from UniProt Q12834 1-499)
			binds	Bub3 (recombinant, in rMCC) (from UniProt O43684 1-328)

Reference: PMC5179498
